Source: PMC7994375
These are yes or no findings as the source states them, for the method shown. In cells and extracts the contact can be indirect. Some results given as binding are weak or reduced against the parent protein; the word gives no strength.

By UniProt entry, the sequences of proteins in these tests, tags left out. Where a name states a change or a piece, a line headed by the entry shows the natural chain unless it says otherwise.
UniProt P32245: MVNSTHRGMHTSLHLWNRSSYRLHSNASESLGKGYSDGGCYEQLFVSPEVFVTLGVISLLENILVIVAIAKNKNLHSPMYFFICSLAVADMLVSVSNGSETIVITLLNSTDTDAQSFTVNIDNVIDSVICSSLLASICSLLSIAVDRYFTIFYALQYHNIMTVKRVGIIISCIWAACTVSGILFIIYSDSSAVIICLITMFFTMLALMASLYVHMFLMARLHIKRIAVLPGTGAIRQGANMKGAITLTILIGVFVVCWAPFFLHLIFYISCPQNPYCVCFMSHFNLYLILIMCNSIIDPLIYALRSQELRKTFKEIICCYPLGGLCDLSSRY
UniProt P49407: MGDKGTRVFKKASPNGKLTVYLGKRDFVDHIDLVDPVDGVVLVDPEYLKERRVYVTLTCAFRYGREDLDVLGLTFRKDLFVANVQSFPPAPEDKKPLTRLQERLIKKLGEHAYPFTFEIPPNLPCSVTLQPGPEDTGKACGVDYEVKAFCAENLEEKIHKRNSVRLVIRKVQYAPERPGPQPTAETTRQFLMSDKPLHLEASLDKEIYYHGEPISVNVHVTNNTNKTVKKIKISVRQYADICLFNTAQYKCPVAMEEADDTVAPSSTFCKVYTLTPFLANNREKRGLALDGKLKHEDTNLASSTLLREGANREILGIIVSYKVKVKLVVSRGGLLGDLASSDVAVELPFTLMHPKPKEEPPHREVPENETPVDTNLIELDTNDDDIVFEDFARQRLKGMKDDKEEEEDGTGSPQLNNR

Biological target: Human Melanocortin-4 Receptor (MC4R) WT, NanoBiT constructs (MC4R WT-LgBiT; MC4R WT-SmBiT) (human) (UniProt P32245)
Assay: split reporter; stable HEK293 line with MC4R WT-LgBiT and SmBiT-β-arrestin-2 (BiBiT vector); MSH-related peptides and other ligands at 0.1 nM, 10 nM and 1 uM; AUC as % of α-MSH activity

binding, binds:
Human N-SmBiT-β-arrestin-2 (from UniProt P32121 1-409)

Biological target: Human Melanocortin-4 Receptor (MC4R) WT, NanoBiT constructs (MC4R WT-LgBiT; MC4R WT-SmBiT) (human) (UniProt P32245)
Assay: split reporter; NanoBiT homodimerisation in live HEK293 cells: MC4R WT-SmBiT with MC4R WT-LgBiT or MC4R mutant-LgBiT, 50 ng/well each; run as the coupling assay; AUC against HaloTag-SmBiT baseline, WT:WT = 100%

binding, binds:
Human MC4R I251L-C-LgBiT (from UniProt P32245 1-332) (receptor)
Human MC4R M200V-C-LgBiT (from UniProt P32245 1-332) (receptor)
Human Melanocortin-4 Receptor (MC4R) WT, NanoBiT constructs (MC4R WT-LgBiT; MC4R WT-SmBiT) (from UniProt P32245 1-332)
Human MC4R R305S-C-LgBiT (from UniProt P32245 1-332) (receptor)
Human MC4R I186V-C-LgBiT (from UniProt P32245 1-332) (receptor)
Human MC4R S295P-C-LgBiT (from UniProt P32245 1-332) (receptor)
Human MC4R T53I-C-LgBiT (from UniProt P32245 1-332) (receptor)
Human MC4R R236C-C-LgBiT (from UniProt P32245 1-332) (receptor)
Human MC4R S191T-C-LgBiT (from UniProt P32245 1-332) (receptor)

Biological target: Human Melanocortin-4 Receptor (MC4R) WT, NanoBiT constructs (MC4R WT-LgBiT; MC4R WT-SmBiT) (human) (UniProt P32245)
Assay: split reporter; NanoBiT in live HEK293 cells: MC4R-LgBiT (WT or mutant) with SmBiT-β-arrestin-1, SmBiT-β-arrestin-2 or Gαs-SmBiT, 50 ng/well each; 37°C, Opti-MEM; stimulated with 1 uM NDP-α-MSH; AUC over 45 min against HaloTag-SmBiT baseline, WT = 100%

binding, binds:
Human N-SmBiT-β-arrestin-1 (from UniProt P49407 1-418)
Human N-SmBiT-β-arrestin-2 (from UniProt P32121 1-409)
